{"source": "patent US11229628B2", "about": "“TRPA1 and TRPV4 inhibitors and methods of using the same for organ-specific inflammation and itch” (Duke University, priority 2015, dated 2022)", "test_system": "mice", "experiment": "ET1 footpad injection, von Frey withdrawal thresholds", "format": "in vivo, mouse", "conditions": "WT and oil-treated iKO (control) mice", "note": "Entries after “also recorded” stand apart in the source; their conditions may differ."}
{"substance": "endothelin-1 [ET1]", "values": [{"measurement": "mechanical allodynia / von Frey withdrawal thresholds after footpad injection", "value": "significantly lowered; also recorded: significant levels of mechanical allodynia"}]}
